These are yes or no findings as the source states them, for the method shown. For part of these data: Binding seen in cells or lysates may run through a third protein. Some entries that bind do so weakly or less than the wild type. One block for each substance: values may come before it.
Experiments:
[1] = target: RagA/RagD heterodimer (UniProt Q7L523); assay: co-immunoprecipitation with anti-myc antibody from 293T cells (FIG. 3d)
[2] = target: RagB/RagD heterodimer (myc-RagD/HA-RagB) (UniProt Q9NQL2); assay: as above
[3] = target: RagA/RagD heterodimer (UniProt Q7L523); assay: co-immunoprecipitation with anti-myc antibody from 293T cells (FIG. 6f)
[4] = target: RagB/RagD heterodimer (myc-RagD/HA-RagB) (UniProt Q9NQL2); assay: co-immunoprecipitation with anti-myc antibody from 293T cells (FIG. 6g)
[5] = target: RagA/RagD heterodimer (UniProt Q7L523); assay: co-immunoprecipitation with anti-myc antibody from 293T cells, anti-FLAG blot (FIG. 4b)
[6] = target: HA-tagged RagD (UniProt Q9NQL2); assay: in vitro GST pull-down from transfected 293T extracts, anti-HA blot (FIG. 3a)
[7] = target: endogenous RagD of 293T cells (UniProt Q9NQL2); assay: in vitro GST pull-down from 293T lysates with leucine, ATP, tRNA^Leu, anti-RagD blot (FIG. 10a)
[8] = target: HA-tagged RagD (UniProt Q9NQL2); assay: in vitro GST pull-down of HA-RagD lysate in the presence of GDPβS or GTPγS, anti-HA blot (FIG. 6c)
[9] = target: HA-tagged RagD (UniProt Q9NQL2); assay: in vitro GST pull-down of HA-RagD lysate, anti-HA blot (FIG. 3h)
[10] = target: HA-tagged RagD (UniProt Q9NQL2); assay: in vitro GST pull-down of HA-RagD lysate, anti-HA blot (FIG. 3h; also told as data not shown in the same paragraph)
[11] = target: myc-tagged LRS (wild type) (Homo sapiens (Human)) (UniProt Q9P2J5); assay: in vitro pull-down of myc-tagged LRS with GST-RagD fragments (FIG. 3f)
[12] = target: myc-tagged LRS (wild type) (Homo sapiens (Human)) (UniProt Q9P2J5); assay: co-immunoprecipitation with anti-HA antibody, anti-myc blot (FIG. 3c)
[13] = target: RagB/RagD heterodimer (myc-RagD/HA-RagB) (UniProt Q9NQL2); assay: anti-myc immunoprecipitation from 293T cells expressing myc-RagD/HA-RagB, anti-LRS blot (FIG. 3e)
[14] = target: endogenous Raptor of 293T cells (UniProt Q8N122); assay: immunoprecipitation with anti-Raptor antibody from 293T cells with control or LRS siRNA, anti-RagD blot (FIG. 4d)
[15] = target: endogenous RagD of 293T cells (UniProt Q9NQL2); assay: immunoprecipitation of 293T lysates with anti-Raptor antibody, anti-RagD blot (FIG. 4a)
[16] = target: HA-tagged RagD (UniProt Q9NQL2); assay: co-immunoprecipitation with anti-HA antibody from 293T cells, anti-myc blot (FIG. 3b)
[17] = target: HA-tagged RagD (UniProt Q9NQL2); assay: co-immunoprecipitation with anti-HA antibody, anti-myc blot (FIG. 10d)
[18] = target: RagB/RagD heterodimer (HA-RagD/myc-RagB) (UniProt Q9NQL2); assay: co-immunoprecipitation with anti-HA antibody, anti-myc blot (FIG. 3i)
[19] = target: GST-LRS (purified GST-fused leucyl-tRNA synthetase) (Homo sapiens (Human)) (UniProt Q9P2J5); assay: in vitro GST-LRS pull-down of myc-RagD lysates, anti-myc blot (FIG. 6d)
[20] = target: FLAG-tagged LRS (Homo sapiens (Human)) (UniProt Q9P2J5); assay: co-immunoprecipitation of FLAG-LRS with myc-RagD from 293T cells (FIG. 6e)
[21] = target: FLAG-tagged LRS (Homo sapiens (Human)) (UniProt Q9P2J5); assay: recap of the co-immunoprecipitations of FIGS. 6e-6g
[22] = target: FLAG-tagged LRS (Homo sapiens (Human)) (UniProt Q9P2J5); assay: co-immunoprecipitation with anti-myc antibody from 293T cells co-expressing Rag heterodimers (FIGS. 6f and 6g)

Sequences of proteins named here, by UniProt entry; tags and fusion partners are left off. A change or cut given only in a name is not applied to a line headed by its entry.
UniProt Q7L523: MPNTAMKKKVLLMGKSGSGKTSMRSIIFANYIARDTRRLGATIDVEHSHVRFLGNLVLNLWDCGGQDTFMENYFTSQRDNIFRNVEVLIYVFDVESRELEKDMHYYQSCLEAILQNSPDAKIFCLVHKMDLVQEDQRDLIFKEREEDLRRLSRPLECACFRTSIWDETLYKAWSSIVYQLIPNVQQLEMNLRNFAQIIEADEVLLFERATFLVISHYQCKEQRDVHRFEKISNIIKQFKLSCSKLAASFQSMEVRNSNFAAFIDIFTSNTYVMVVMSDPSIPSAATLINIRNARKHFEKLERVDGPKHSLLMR
UniProt Q9NQL2: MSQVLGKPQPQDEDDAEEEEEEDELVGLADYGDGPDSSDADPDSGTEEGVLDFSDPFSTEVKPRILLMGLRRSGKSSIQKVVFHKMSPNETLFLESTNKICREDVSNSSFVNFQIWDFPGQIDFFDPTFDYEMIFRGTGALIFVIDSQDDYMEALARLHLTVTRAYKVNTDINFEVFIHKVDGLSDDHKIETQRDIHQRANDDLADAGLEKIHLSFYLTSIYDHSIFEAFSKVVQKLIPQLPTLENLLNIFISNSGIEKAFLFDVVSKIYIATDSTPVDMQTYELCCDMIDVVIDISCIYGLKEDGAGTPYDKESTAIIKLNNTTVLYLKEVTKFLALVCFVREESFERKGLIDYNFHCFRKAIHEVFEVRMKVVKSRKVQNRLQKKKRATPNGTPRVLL
UniProt Q9P2J5: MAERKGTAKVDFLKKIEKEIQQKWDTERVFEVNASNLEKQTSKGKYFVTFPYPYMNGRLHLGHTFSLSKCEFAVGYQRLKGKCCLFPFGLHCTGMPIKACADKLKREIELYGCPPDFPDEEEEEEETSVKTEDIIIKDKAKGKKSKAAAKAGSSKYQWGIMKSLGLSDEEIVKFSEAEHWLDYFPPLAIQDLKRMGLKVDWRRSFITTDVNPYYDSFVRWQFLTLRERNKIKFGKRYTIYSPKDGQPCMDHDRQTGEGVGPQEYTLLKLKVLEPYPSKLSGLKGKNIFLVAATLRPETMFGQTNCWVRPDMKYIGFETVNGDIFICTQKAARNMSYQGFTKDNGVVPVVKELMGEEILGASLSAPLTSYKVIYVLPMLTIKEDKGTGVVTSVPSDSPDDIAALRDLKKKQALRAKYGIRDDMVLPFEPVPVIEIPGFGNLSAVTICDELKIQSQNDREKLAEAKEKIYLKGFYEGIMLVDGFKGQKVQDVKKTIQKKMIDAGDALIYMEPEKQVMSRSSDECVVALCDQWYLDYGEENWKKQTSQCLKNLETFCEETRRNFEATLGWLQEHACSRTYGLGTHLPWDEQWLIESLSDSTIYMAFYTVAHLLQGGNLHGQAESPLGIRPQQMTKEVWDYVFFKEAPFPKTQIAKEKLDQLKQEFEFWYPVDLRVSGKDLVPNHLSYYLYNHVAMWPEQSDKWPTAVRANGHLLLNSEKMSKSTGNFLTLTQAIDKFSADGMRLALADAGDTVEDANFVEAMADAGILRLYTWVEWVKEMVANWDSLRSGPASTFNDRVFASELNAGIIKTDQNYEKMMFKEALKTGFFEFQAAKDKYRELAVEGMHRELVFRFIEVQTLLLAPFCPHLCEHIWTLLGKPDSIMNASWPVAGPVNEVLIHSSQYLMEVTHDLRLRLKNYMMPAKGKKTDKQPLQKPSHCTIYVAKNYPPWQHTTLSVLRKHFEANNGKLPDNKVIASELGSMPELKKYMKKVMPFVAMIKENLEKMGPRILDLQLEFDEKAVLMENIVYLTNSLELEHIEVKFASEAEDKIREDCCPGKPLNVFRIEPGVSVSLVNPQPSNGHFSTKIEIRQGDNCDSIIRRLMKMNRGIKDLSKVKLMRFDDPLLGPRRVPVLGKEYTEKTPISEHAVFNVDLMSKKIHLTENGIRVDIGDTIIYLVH
UniProt Q8N122: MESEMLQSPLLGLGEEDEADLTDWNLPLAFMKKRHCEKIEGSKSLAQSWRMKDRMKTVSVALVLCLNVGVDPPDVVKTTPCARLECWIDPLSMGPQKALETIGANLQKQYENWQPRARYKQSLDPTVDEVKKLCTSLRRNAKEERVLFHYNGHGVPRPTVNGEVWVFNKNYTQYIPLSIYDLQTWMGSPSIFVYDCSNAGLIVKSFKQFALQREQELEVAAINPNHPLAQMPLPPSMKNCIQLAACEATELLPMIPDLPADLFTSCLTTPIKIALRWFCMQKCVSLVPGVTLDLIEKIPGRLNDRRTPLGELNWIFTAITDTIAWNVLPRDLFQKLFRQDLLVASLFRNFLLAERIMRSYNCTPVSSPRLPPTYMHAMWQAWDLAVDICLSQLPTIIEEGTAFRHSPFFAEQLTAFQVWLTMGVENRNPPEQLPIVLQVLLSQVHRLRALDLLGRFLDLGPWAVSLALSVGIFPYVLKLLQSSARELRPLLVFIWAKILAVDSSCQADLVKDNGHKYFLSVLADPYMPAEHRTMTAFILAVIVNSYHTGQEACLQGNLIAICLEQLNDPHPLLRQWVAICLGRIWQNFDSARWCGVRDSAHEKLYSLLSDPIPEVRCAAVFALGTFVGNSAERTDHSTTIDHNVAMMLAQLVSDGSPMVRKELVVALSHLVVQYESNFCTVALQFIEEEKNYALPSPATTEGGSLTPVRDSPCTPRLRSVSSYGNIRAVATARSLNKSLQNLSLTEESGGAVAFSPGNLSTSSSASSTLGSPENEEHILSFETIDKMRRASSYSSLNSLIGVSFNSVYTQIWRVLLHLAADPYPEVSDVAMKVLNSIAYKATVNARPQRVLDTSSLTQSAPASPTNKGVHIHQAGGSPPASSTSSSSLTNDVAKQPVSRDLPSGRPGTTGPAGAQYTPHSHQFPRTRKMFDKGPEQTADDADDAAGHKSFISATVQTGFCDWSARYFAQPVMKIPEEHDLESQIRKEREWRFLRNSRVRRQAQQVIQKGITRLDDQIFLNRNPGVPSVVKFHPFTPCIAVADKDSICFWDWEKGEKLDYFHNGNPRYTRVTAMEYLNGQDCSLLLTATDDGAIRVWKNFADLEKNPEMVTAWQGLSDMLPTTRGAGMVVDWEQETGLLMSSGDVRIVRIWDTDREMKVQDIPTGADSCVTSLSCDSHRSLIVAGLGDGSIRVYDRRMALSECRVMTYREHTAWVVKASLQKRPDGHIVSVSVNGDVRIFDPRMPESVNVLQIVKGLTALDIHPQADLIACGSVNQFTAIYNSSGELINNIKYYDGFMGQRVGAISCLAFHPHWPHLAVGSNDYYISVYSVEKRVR

- binding [6]: binds
- binding [7]: binds
- binding [8]: binds
Substance: GST-LRS (purified GST-fused leucyl-tRNA synthetase) (from UniProt Q9P2J5 1-1176) (enzyme)

- binding [9]: binds
Substance: GST-LRS fragment 759-1176 (from UniProt Q9P2J5 759-1176) (enzyme)

- binding [10]: binds
Substance: GST-LRS fragment 951-1176 (from UniProt Q9P2J5 951-1176) (enzyme)

- binding [13]: binds
Substance: endogenous LRS of 293T cells (from UniProt Q9P2J5 1-1176) (enzyme)

- binding [14]: binds
Substance: endogenous RagD of 293T cells (from UniProt Q9NQL2 1-400) (enzyme)

- binding [18]: binds
Substance: myc-tagged LRS R956A/K957A (from UniProt Q9P2J5 1-1176) (enzyme)

- binding [18]: binds
Substance: myc-tagged LRS S953A/V954A (from UniProt Q9P2J5 1-1176) (enzyme)

Further lines, the substance ahead of its results:

Substance: FLAG-tagged LRS (from UniProt Q9P2J5 1-1176) (enzyme)
- binding [1]: binds
- binding [2]: binds
- binding [3]: binds
- binding [4]: binds
- binding [5]: binds

Substance: GST-LRS fragment 759-1120 (from UniProt Q9P2J5 759-1120) (enzyme)
- binding [9]: binds

Substance: GST-RagD (RagD-(1-400)) (from UniProt Q9NQL2 1-400) (enzyme)
- binding [11]: binds

Substance: GST-RagD fragment 230-400 (from UniProt Q9NQL2 230-400) (enzyme)
- binding [11]: binds

Substance: HA-tagged RagD (from UniProt Q9NQL2 1-400) (enzyme)
- binding [12]: binds

Substance: endogenous Raptor of 293T cells (from UniProt Q8N122 1-1335)
- binding [15]: binds

Substance: myc-tagged LRS (wild type) (from UniProt Q9P2J5 1-1176) (enzyme)
- binding [16]: binds

Substance: myc-tagged LRS K716A/K719A (from UniProt Q9P2J5 1-1176) (enzyme)
- binding [17]: binds

Substance: myc-tagged RagD (wild type) (from UniProt Q9NQL2 1-400) (enzyme)
- binding [19]: binds
- binding [20]: binds

Substance: myc-tagged RagD Q121L (GTP-bound form) (from UniProt Q9NQL2 1-400) (enzyme)
- binding [21]: binds
- binding [19]: binds
- binding [20]: binds
- binding [22]: binds
